Binding data for one molecule are collected here from patent publication US20020098183A1 (published 2002).

Results are given in words; binding and its absence hold for the method and conditions named. A result given as binding can be weak or reduced; the word gives no strength.

The assay has as its target baboon L-selectin (on baboon leukocytes) (baboon). In words: binding to leukocytes (e.g. FACS analysis). On the technique in general: A flow cytometer gives signals particle by particle.

B1: HuDreg 55 humanized anti-L-selectin antibody (antibody, human IgG4, kappa, V domains shown)
VH: EVQLVESGGGLVQPGGSLRLSCAASGFTFSTYAMSWVRQAPGKGLEWVASISTGGSTYYPDSVKGRFTISRDNAKNTLYLQMNSLRAEDTAVYYCARDYDGYFDYWGQGTLVTVSS
VL: DIQMTQSPSSLSASVGDRVTITCKASQSVDYDGDSYMNWYQQKPGKAPKLLIYAASNLESGIPSRFSGSGSGTDFTLTISSLQPEDFATYYCQQSNEDPWTFGQGTKVEIKR
Turning to B1, the binding entry is given as “binds”.
